Experimental data published in the supplement of paper PMC10849652.
Some of the results follow.

Sequences of proteins named here, by UniProt entry; tags and fusion partners are left off. A change or cut given only in a name is not applied to a line headed by its entry.
UniProt Q9NXH8: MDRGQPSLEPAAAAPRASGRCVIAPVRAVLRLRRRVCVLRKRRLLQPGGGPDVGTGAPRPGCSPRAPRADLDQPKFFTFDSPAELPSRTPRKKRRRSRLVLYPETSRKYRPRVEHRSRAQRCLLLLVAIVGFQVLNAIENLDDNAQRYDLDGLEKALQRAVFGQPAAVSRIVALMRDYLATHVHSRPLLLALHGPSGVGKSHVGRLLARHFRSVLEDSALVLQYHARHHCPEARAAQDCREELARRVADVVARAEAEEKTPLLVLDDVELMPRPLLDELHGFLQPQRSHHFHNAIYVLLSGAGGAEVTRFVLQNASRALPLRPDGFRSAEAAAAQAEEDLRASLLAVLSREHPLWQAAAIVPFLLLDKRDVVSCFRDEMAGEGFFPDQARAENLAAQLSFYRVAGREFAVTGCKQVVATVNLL
UniProt Q9ULW0, whole entry, looked up: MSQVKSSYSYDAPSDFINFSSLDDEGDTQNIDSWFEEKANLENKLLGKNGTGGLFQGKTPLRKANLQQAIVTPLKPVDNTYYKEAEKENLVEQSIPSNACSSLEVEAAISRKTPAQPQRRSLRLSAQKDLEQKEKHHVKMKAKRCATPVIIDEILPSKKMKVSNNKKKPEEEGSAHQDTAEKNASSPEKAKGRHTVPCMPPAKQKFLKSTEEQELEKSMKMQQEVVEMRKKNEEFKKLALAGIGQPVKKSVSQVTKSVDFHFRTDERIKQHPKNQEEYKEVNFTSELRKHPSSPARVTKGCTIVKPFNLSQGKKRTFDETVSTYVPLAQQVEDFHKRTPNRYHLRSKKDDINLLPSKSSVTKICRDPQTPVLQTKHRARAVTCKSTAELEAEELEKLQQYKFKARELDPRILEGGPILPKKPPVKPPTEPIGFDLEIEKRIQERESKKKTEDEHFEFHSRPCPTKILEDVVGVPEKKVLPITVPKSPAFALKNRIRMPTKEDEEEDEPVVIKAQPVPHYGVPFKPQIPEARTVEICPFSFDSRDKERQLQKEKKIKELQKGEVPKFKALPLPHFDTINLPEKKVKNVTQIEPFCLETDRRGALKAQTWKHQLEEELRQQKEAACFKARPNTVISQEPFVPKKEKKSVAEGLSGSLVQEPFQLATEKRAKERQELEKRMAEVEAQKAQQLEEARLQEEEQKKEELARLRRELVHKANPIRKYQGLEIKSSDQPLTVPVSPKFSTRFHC
UniProt Q13625: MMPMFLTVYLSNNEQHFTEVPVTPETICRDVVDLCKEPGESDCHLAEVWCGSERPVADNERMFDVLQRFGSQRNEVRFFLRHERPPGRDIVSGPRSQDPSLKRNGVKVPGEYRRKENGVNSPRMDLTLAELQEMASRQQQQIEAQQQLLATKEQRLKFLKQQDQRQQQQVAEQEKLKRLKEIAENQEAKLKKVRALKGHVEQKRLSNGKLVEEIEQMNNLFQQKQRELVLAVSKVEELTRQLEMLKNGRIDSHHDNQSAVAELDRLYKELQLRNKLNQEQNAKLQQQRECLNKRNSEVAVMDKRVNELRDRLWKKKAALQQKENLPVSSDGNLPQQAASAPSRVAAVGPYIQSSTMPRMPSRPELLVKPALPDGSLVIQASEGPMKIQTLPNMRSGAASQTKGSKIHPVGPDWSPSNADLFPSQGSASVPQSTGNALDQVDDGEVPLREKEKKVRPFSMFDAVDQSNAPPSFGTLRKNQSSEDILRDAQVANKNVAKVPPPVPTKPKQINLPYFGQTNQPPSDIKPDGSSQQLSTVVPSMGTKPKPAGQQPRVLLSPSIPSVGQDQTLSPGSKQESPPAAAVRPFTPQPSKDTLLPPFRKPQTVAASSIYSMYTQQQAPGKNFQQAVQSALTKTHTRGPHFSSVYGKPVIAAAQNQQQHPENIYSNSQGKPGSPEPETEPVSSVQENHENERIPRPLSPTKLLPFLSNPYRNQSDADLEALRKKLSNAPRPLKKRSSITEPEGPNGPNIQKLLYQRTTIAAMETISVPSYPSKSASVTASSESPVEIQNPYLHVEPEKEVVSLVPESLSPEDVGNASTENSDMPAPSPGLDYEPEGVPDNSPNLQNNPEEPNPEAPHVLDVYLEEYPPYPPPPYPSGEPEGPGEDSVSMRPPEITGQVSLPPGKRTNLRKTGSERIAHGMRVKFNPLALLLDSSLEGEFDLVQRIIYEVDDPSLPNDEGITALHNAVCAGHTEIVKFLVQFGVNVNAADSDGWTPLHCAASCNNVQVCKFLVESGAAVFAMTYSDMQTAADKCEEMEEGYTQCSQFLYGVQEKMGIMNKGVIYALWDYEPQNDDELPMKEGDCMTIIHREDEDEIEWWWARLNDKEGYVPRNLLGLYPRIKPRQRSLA
UniProt Q96DX7: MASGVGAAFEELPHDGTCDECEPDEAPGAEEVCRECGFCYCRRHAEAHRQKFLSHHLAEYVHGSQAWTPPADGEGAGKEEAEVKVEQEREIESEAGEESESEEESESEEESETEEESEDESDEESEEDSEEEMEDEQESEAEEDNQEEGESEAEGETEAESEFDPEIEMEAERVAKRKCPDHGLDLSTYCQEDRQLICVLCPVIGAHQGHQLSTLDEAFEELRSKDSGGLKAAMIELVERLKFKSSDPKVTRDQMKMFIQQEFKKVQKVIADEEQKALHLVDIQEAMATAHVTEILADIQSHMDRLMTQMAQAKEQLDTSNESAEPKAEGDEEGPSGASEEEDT
UniProt P11387: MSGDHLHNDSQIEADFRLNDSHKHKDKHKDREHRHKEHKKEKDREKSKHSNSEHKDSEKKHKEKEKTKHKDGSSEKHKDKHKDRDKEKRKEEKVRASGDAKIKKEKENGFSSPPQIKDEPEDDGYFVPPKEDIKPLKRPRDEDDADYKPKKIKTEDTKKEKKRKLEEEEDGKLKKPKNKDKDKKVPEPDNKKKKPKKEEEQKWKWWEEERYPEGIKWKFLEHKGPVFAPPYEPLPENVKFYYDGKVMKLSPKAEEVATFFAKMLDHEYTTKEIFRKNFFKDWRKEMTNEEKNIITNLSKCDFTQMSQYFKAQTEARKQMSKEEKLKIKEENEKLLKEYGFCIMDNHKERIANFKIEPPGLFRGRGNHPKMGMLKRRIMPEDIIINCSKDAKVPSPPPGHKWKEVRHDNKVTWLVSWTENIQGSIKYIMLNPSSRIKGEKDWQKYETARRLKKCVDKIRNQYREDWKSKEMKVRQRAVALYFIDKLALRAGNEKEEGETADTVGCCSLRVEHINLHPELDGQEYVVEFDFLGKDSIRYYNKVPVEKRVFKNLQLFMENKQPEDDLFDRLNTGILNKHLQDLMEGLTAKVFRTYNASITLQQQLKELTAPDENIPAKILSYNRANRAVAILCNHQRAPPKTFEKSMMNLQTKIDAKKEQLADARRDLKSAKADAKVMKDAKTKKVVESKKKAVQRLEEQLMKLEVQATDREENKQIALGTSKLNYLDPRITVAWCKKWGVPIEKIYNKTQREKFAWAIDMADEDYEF
UniProt P11388: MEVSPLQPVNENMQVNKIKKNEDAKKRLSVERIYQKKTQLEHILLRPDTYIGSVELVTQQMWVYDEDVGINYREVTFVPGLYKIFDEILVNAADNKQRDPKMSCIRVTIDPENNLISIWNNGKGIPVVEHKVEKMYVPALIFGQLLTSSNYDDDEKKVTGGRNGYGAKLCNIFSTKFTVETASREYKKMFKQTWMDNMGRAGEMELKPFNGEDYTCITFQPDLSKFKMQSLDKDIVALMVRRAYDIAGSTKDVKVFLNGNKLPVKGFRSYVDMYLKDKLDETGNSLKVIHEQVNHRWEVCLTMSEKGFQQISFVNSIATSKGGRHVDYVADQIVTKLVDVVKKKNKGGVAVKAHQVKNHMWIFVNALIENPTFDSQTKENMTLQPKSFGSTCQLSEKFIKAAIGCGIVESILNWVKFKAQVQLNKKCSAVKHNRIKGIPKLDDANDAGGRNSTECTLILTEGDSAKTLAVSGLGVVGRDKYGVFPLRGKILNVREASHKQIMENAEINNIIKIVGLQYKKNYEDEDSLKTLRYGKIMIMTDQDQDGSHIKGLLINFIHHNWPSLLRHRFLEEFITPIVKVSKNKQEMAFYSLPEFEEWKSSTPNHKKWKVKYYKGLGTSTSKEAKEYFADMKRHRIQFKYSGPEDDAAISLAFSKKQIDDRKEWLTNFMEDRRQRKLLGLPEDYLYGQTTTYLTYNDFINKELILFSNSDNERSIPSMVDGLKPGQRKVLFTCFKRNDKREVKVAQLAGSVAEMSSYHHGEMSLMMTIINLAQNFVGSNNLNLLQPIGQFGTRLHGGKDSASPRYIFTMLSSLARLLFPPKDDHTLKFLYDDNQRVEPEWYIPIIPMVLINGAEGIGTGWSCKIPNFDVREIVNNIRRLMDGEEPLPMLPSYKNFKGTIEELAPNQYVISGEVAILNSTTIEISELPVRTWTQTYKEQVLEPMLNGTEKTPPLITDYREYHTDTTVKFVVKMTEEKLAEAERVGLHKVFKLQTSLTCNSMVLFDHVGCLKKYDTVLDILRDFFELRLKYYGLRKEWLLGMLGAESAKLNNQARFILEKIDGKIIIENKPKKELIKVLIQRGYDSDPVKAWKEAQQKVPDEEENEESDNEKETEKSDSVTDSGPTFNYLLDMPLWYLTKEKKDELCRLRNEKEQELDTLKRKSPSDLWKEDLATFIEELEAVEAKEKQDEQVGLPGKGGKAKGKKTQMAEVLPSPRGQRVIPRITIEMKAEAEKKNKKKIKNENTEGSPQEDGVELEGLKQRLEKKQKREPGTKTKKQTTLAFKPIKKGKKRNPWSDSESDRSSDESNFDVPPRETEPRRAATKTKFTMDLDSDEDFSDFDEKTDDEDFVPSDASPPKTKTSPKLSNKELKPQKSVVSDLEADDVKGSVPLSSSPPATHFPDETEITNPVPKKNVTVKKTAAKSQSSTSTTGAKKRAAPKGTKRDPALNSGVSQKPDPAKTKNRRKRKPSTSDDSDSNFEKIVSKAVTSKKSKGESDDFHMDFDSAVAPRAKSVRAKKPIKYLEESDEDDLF
UniProt Q9UKE5: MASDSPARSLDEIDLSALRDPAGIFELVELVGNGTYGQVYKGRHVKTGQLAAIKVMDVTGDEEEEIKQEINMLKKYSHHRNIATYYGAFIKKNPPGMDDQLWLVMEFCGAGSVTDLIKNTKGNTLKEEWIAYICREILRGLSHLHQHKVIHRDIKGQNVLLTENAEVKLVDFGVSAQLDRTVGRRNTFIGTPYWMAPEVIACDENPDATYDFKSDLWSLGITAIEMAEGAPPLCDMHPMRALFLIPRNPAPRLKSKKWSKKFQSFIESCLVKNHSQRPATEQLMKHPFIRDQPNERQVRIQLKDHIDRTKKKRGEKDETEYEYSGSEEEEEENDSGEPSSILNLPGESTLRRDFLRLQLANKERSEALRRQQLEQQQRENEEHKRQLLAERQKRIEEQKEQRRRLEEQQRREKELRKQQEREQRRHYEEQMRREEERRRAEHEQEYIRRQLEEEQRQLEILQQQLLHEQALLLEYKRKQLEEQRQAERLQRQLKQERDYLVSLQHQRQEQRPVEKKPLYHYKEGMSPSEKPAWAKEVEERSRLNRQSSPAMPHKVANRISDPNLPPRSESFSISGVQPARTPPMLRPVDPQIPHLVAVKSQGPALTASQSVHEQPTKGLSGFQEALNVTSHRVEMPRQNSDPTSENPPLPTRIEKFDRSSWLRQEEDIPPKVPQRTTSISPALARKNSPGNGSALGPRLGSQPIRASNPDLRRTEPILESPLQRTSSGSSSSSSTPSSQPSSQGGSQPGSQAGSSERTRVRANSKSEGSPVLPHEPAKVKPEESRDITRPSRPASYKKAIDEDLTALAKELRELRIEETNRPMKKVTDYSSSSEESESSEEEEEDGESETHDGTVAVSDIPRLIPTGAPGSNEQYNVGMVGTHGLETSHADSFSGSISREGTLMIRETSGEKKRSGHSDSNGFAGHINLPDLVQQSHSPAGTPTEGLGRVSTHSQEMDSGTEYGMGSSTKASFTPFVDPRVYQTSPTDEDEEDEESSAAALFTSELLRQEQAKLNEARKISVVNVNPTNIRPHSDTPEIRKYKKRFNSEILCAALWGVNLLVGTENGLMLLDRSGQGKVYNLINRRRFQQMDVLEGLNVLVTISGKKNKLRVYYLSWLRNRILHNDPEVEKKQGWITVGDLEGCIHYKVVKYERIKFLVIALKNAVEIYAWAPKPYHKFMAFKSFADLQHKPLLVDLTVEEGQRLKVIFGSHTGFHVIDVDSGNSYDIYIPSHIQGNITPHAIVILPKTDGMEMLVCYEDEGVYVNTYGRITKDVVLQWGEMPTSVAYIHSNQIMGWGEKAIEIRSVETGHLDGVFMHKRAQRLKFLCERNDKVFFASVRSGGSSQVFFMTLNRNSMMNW

Assays:
Assay in all cases: log2 fold change, soluble protein after heating vs DMSO (PISA); higher = thermal stabilisation; K562 cells, 10 uM, 30 min; active = over 0.2 and 3.5 SD of the protein, either way, in both replicates (recomputed)
[1] = compound: C1=CC=C(C=C1)[C@H](COC2=CC3=C(C=C2)NC(=O)N3)NC(=O)C4=CC=CN(C4=O)CC5=CC(=C(C=C5)F)F
How it was run: (§1)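 Soluble protein was quantified by TMTpro 16plex LC-MS/MS after channel sums were equalised. It was obtained as the supernatant after 21,000xg for 90 min from pooled aliquots of K562 cells (2×10^6 cells/mL, 10 μM compound, 30 min) heated for 3 min across 48°C-58°C and extracted in PBS with 0.5% NP-40 at 4°C. Thermal stability values are relative to control samples and come from duplicates. They are given as log2 fold changes.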

[2] = compound: CC1=C(SC2=C1C(=N[C@H](C3=NN=C(N32)C)CC(=O)N)C4=CC=C(C=C4)Cl)C
How it was run: as §1

[3] = compound: CC1=C2C(=CC=C1)N=C(N(C2=O)C3=CC=CC=C3C)CN4C=NC5=C(N=CN=C54)N
How it was run: as §1

[4] = compound: Cc1sc2c(c1C)C(c1ccc(Cl)cc1)=N[C@@H](CC(=O)OC(C)(C)C)c1nnc(C)n1-2
How it was run: as §1

[5] = compound: c1ccc([C@@H]2C[C@H]2NC2CCNCC2)cc1
How it was run: as §1

Measured: log2 fold change

TRAPPC2 isoform 3 (UniProt P0DI81)
inactive: [1] -0.049 | [2] -0.055 | [3] 0.082 | [4] 0.015 | [5] 0.036

TOR4A (UniProt Q9NXH8)
inactive: [1] 0.018 | [2] -0.046 | [3] -0.081 | [4] 0.019 | [5] -0.051

TPCN1 isoform 3 (UniProt Q9ULQ1)
inactive: [1] 0.137 | [2] 0.018 | [3] 0.095 | [4] 0.052 | [5] 0.073

TRAF2 (UniProt Q12933)
inactive: [1] -0.025 | [2] 0.028 | [3] -0.029 | [4] -0.023 | [5] 0.019

TRMT61B (UniProt Q9BVS5)
inactive: [1] 0.013 | [2] -0.018 | [3] -0.074 | [4] 0.033 | [5] -0.016

TPX2 (UniProt Q9ULW0)
inactive: [1] 0.016 | [2] -0.012 | [3] -0.066 | [4] 0.058 | [5] 0.041

TRMT13 (UniProt Q9NUP7)
inactive: [1] 0.003 | [2] 0.019 | [3] 0.084 | [4] 0.028 | [5] -0.023

TP53BP2 isoform 3 (UniProt Q13625)
inactive: [1] 0.046 | [2] -0.042 | [3] 0.137 | [4] -0.09 | [5] -0.035

TRIM44 (UniProt Q96DX7)
inactive: [1] -0.027 | [2] 0.008 | [3] -0.002 | [4] -0.006 | [5] 0.012

TOP1 (UniProt P11387)
inactive: [1] 0.077 | [2] -0.146 | [3] -0.284 | [4] 0.116 | [5] 0.037

TOP2A isoform 4 (UniProt P11388)
inactive: [1] 0.157 | [2] -0.322 | [3] -0.703 | [4] 0.252 | [5] 0.002

TNIK isoform 6 (UniProt Q9UKE5)
inactive: [1] -0.025 | [2] 0.025 | [3] 0.018 | [4] 0.013 | [5] -0.053

TRIM65 (UniProt Q6PJ69)
inactive: [2] 0.039 | [3] 0.109 | [5] -0.041

TRIM24 (UniProt O15164)
inactive: [1] 0.002 | [3] 0.074 | [4] 0.024

4 successive records out of the list so far:
TRAF2 (UniProt Q12933)
inactive: [1] -0.025 | [2] 0.028 | [3] -0.029 | [4] -0.023 | [5] 0.019

TRMT61B (UniProt Q9BVS5)
inactive: [1] 0.013 | [2] -0.018 | [3] -0.074 | [4] 0.033 | [5] -0.016

TPX2 (UniProt Q9ULW0)
inactive: [1] 0.016 | [2] -0.012 | [3] -0.066 | [4] 0.058 | [5] 0.041

TRMT13 (UniProt Q9NUP7)
inactive: [1] 0.003 | [2] 0.019 | [3] 0.084 | [4] 0.028 | [5] -0.023

Going on with the list.

TRPM7 (UniProt Q96QT4)
inactive: [1] -0.15 | [2] 0.006 | [3] 0.004 | [4] 0.047 | [5] 0.151

TSEN34 (UniProt Q9BSV6)
inactive: [1] -0.034 | [2] 0.056 | [3] 0.19 | [4] 0.052 | [5] -0.066
